# PubChem BioAssay AID1347076 (National Center for Advancing Translational Sciences (NCATS), 2019)
# Values joined by “and” are separate entries in the source; they are usually repeats but may differ in a detail not shown here. Equal entries are not always repeated. In all, about 400,000 compounds went through this assay and about 13,000 (3.2%) were called active. Inconclusive means that the source gave no clear call. Such entries were picked first, then a sample of the others. Calls follow the shape of the dose curve; as a rule, active = well fitted cell-killing curve with a large enough effect; inconclusive = small, poorly fitted or top-dose-only effect, or effect the other way; inactive = flat fitted curve, though single readings scatter. Potencies of inconclusive entries are doubtful fits and often do not repeat.
# Assay: qHTS assay for MDR1-selective chemotherapeutics: Primary screen using the drug-selected MDR subline cells KB-V1; also: nearly all actives have a fitted effect of over 60% in size
# Details: KB-V1 MDR cells viability, CellTiter-Glo, 72 h; activity change, negative = cytotoxicity: at 46.1 µM (top of the series)
# Procedure, shortened: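 Luminescent ATP read-out (CellTiter-Glo, 10 min) measures survival of drug-selected KB-V1 MDR cells after 72 h, 37 degrees C compound exposure. Medium: phenol-red-free DMEM, 10% FBS. Values from fitted concentration-response curves.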
# % is scaled to controls: 0 for no effect and ±100 for the full control effect; potency is read from the fitted curve at half-maximal effect.
Structure (SMILES),Potency,"activity change, negative = cytotoxicity"
CC(=O)Oc1ccc(C(=O)Nc2ccc(S(=O)(=O)N3CCOCC3)cc2)cc1,"inconclusive: 29.1 µM [rising, single point]",–
COCCn1c(C)cc(C(=O)CSc2nc3ccccc3o2)c1C,"inconclusive: 9.2 µM [cytotoxic, partial curve]",–
Cc1ccc2nc(NC(=O)CCNS(=O)(=O)c3ccc(Br)s3)sc2c1,active: 18.4 µM,–
Cc1sc2nc(CSc3ccccc3)nc(NCCN(C)C)c2c1C,"inconclusive: 23.1 µM [cytotoxic, partial curve, poor fit]",–
Cc1ccc2sc(C)cc(=O)c2c1,–,inactive: 0%
CNC(=S)N1CCN(CCNC2=CC(=O)CC(C)(C)C2)CC1,"inconclusive: 16.4 µM [rising, single point]",–
COc1ccc(CN(C)S(=O)(=O)c2nnc(NC(=O)c3cccc(C)c3)s2)cc1OC,"inconclusive: 20.6 µM [cytotoxic, single point]",–
CC(C)(C)n1nnnc1C(c1cccs1)N1CCN(Cc2ccc3c(c2)OCO3)CC1 (stereo not given),"inconclusive: 6.51 µM [cytotoxic, partial curve]",–
COc1ccc(C2/C=C\CN(C(=O)C3CC3)[C@H](Cc3ccccc3)C(=O)N2Cc2ccc(F)cc2)cc1 (stereo not given in full),"inconclusive: 14.6 µM [cytotoxic, partial curve, poor fit]",–
Cc1ccc(-c2nnc(COc3cccc(-n4cnnn4)c3)o2)cc1,"inconclusive: 16.4 µM [cytotoxic, partial curve]",–
O=C1/C(=C\c2cccnc2)CN(Cc2ccccc2)C/C1=C\c1cccnc1,"inconclusive: 4.61 µM [cytotoxic, full curve, poor fit]",–
Cc1cc(C)c2nc(N(CCCN(C)C)C(=O)c3ccc4c(c3)CCCC4)sc2c1,"inconclusive: 25.9 µM [cytotoxic, partial curve, poor fit]",–
O=C(N/N=C\c1ccc(O)c([N+](=O)[O-])c1)c1ccccc1-n1cccc1,active: 16.4 µM,–
Cc1ccc(NC(=O)CCn2nc(-c3ccccc3)c3ccccc3c2=O)c(C)c1,"inconclusive: 3.66 µM [cytotoxic, partial curve, poor fit]",–
COc1ccc(Nc2ccc3ccccc3c2)cc1,"inconclusive: 14.6 µM [cytotoxic, partial curve]",–
COc1ccc(C(=O)OCC(=O)N2CCN(C(=O)c3ccco3)CC2)cc1OC,"inconclusive: 3.66 µM [rising, partial curve, poor fit]",–
Cc1cnc(NC(=O)c2cc(S(=O)(=O)N(C)C)ccc2N2CCCC2)s1,"inconclusive: 18.4 µM [cytotoxic, partial curve, poor fit]",–
Cc1cccc(N(CC(=O)Nc2ccccc2-c2ccccc2)S(=O)(=O)c2ccccc2)c1C,active: 20.6 µM,–
Cc1ccc(CCc2nnc(SCC(=O)Nc3cccc(Cl)c3)n2-c2ccccc2)o1,"inconclusive: 7.31 µM [cytotoxic, partial curve, poor fit]",–
CO[C@H]1CN(C)C(=O)c2cc(NC(=O)c3cc(C)on3)ccc2OC[C@@H](C)N(C(=O)C2CC2)C[C@H]1C,–,inactive: -1.2%
Nc1nc[nH]c(=O)c1N,"inconclusive: 5.17 µM [rising, partial curve]",–
CCN(C(=O)CSc1nc(-c2ccccc2)no1)c1cccc(C)c1,–,inactive: -6.73%

# Some of the entries so far, bar-delimited:
Structure (SMILES) | Potency | activity change, negative = cytotoxicity
O=C(N/N=C\c1ccc(O)c([N+](=O)[O-])c1)c1ccccc1-n1cccc1 | active: 16.4 µM | –
Cc1ccc(NC(=O)CCn2nc(-c3ccccc3)c3ccccc3c2=O)c(C)c1 | inconclusive: 3.66 µM [cytotoxic, partial curve, poor fit] | –
COc1ccc(Nc2ccc3ccccc3c2)cc1 | inconclusive: 14.6 µM [cytotoxic, partial curve] | –

# Additional compounds:

Structure (SMILES),Potency,"activity change, negative = cytotoxicity"
COc1ccc(-c2c(C)c3cc(O)ccc3oc2=O)cc1,"inconclusive: 23.1 µM [cytotoxic, single point]",–
O=C1c2ccccc2C2=Nc3ccccc3SC(c3cccc(F)c3)C12 (stereo not given),active: 16.4 µM,–
O=C1N/C(=N/NC(=O)c2cccc3ccccc23)S/C1=C\c1ccccc1OCc1ccccc1,–,inactive: -25.1%
CC(=O)c1cc2c(cc1NS(=O)(=O)c1ccc(C)cc1)OCCO2,active: 16.4 µM,–
O=C(NCCCN1CCN(CCCNC(=O)c2cccc(Cl)c2)CC1)c1cccc(Cl)c1,"inconclusive: 7.31 µM [cytotoxic, partial curve, poor fit]",–
Cc1cccc(CSc2nnc(Cn3c(=O)sc4ccccc43)n2C)c1,–,inactive: -15.3%
Cc1cc(C)cc(N(C(=O)Cc2cccs2)C(C(=O)NC2CCCCC2)c2ccccn2)c1 (stereo not given),"inconclusive: 7.08 µM [cytotoxic, full curve, poor fit]",–
CCc1nc(N)nc(N)c1-c1ccc(Cl)cc1,"inconclusive: 23.1 µM [cytotoxic, single point]",–
O=C(NN=C1CCCC1)c1n[nH]c2c1CCCC2,–,inactive: -3.14%
O=C(Cc1cccc(C(F)(F)F)c1)Nc1ccc(S(=O)(=O)N2CCCC2)cc1,–,inconclusive: -41%
Cc1ccc(N2C(=O)Nc3ccc(Br)cc3C2(O)C(=O)NCCN(C)C)cc1C (stereo not given),"inconclusive: 2.91 µM [rising, partial curve]",–
COc1ccc(-c2nnc(OCc3ccccc3)c3ccccc23)cc1,"inconclusive: 18.4 µM [cytotoxic, single point]",–
O=C(NNC(=O)c1ccccc1O)c1ccc(NS(=O)(=O)c2ccc(F)cc2)cc1,"inconclusive: 29.1 µM [cytotoxic, single point]",–
COc1ccccc1Nc1nn2c(=O)c3ccc(C(=O)NC4CCC(C)CC4)cc3nc2s1 (stereo not given),"inconclusive: 29.1 µM [rising, single point]",–
O=c1c2ccccc2n2nnnc2n1-c1ccccc1,"inconclusive: 29.1 µM [rising, single point]",–
CC(C)c1ccc(CN2CCC2(C)C(=O)Nc2ccc3c(c2)OCO3)cc1 (stereo not given),"inconclusive: 29.1 µM [cytotoxic, single point]",–
CC(C)(C)c1ccc(S(=O)(=O)NC(=O)C2(C)CCN2C(=O)c2cccc3ccccc23)cc1 (stereo not given),–,inactive: -15.1%
CN(C)CCn1c2ccccc2c2nc3ccc([N+](=O)[O-])cc3cc21,"inconclusive: 25.9 µM [cytotoxic, single point]",–
Nc1nc(N)c2cc(Sc3ccc(Cl)cc3)ccc2n1,"inconclusive: 11.6 µM [cytotoxic, partial curve, poor fit]",–
COc1cccc(CNC(=O)CSc2nc3ccccc3nc2Cc2ccccc2)c1,–,inactive: -15.4%
COc1ccccc1N1CCN(C2CCN(C(=O)c3cc(OC)c(OC)c(OC)c3)CC2)CC1,"inconclusive: 11.6 µM [cytotoxic, partial curve]",–
Cc1ccccc1NC(=O)c1c(C)oc2ccc(O)c(CN3CCCC(C)C3)c12 (stereo not given),"inconclusive: 29.1 µM [cytotoxic, single point]",–

# Pulled by compound from the entries so far:
Structure (SMILES),Potency,"activity change, negative = cytotoxicity"
O=c1c2ccccc2n2nnnc2n1-c1ccccc1,"inconclusive: 29.1 µM [rising, single point]",–
CC(C)c1ccc(CN2CCC2(C)C(=O)Nc2ccc3c(c2)OCO3)cc1 (stereo not given),"inconclusive: 29.1 µM [cytotoxic, single point]",–

# Continuation:

Structure (SMILES),Potency,"activity change, negative = cytotoxicity"
CCc1nc(N)nc(N)c1-c1ccc(Cl)c(N=[N+]=[N-])c1,active: 4.11 µM and active: 16.4 µM,–
CN1/C(=C/C(=S)NC(=O)C2CCC2)C(C)(C)c2ccccc21,"inconclusive: 18.4 µM [cytotoxic, single point]",–
CN(CC(=O)Nc1ccc(F)cc1)C(=O)COC(=O)COc1ccc(C#N)cc1,"inconclusive: 29.1 µM [rising, single point]",–
COC(=O)c1cnn(-c2ccc(Cl)cc2)c1/C=N/NC(N)=S,"inconclusive: 16.4 µM [cytotoxic, single point]",–
Cc1c(C(=O)NCc2ccc(Cl)c(Cl)c2)sc(=O)n1Cc1ccc(S(=O)(=O)N(C)C)cc1,"inconclusive: 3.26 µM [cytotoxic, full curve]",–
COc1ccccc1NC(=S)N(Cc1ccco1)Cc1cc2cc(C)ccc2[nH]c1=O,"inconclusive: 18.4 µM [cytotoxic, single point]",–
CC1Cc2cc(/C=C3/SC(=S)N(C)C3=O)ccc2O1 (stereo not given),–,inactive: 12%
COc1ccc(Cl)cc1Cn1c(C)c(C(=O)NCc2ccc(F)cc2)sc1=O,active: 14.6 µM,–
CCN(CC)S(=O)(=O)c1ccc2nc(NC(=O)c3ccccc3OC)sc2c1,"inconclusive: 29.1 µM [cytotoxic, single point]",–
O=C(NCC1CC1)c1cc2c(c(-c3cccc(-c4ccccc4F)c3)n1)[C@@H](CCO)N(C(=O)CC1CC1)C2,"inconclusive: 16.4 µM [cytotoxic, partial curve]",–
CC(C)NS(=O)(=O)c1cc(C(F)(F)F)ccc1/C=C/C(=O)O,–,inactive: 3.5%
COc1cc(NC(=O)CN(C)C2CCCCC2)c(C)cc1[N+](=O)[O-],active: 4.11 µM,–
CN(CC(=O)Nc1ccc(S(=O)(=O)N2CCCC2)cc1)Cc1c(F)cccc1Cl,active: 7.31 µM,–
CN1CCN(C(=O)C2=C[C@@H](c3ccc4c(c3)OCO4)C[C@@H](OCc3ccc(CO)cc3)O2)CC1,–,inactive: -5.23%
CCN(CC(=O)Nc1ccccc1C(F)(F)F)C(=O)c1ccc(NC(=O)c2cccs2)cc1,–,inactive: -7.84%
COc1ccc(NC(=O)C2CCCNC2=O)cc1 (stereo not given),"inconclusive: 16.4 µM [rising, partial curve, poor fit]",–
OCCC1CN(Cc2cccc(C(F)(F)F)c2)CCN1Cc1ccccc1 (stereo not given),"inconclusive: 18.4 µM [cytotoxic, single point]",–
COc1ccccc1OCC(=O)NCCS(=O)(=O)N1CCN(c2ccccc2)CC1,"inconclusive: 14.6 µM [cytotoxic, partial curve]",–
c1ccc(Cn2nnnc2C(c2cccnc2)N2CCN(c3ccccc3)CC2)cc1 (stereo not given),"inconclusive: 8.2 µM [cytotoxic, partial curve]",–
C#CCOCCOCCOCCNc1nc(N2CCN(C(=O)[C@H]([C@@H](C)CC)n3cc([C@@H](N)CO)nn3)CC2)nc(N2CCN(C(=O)[C@H](CCCCN)n3cc([C@@H](N)C(C)CC)nn3)CC2)n1 (stereo not given in full),"inconclusive: 18.4 µM [cytotoxic, single point]",–
Cc1ccc(CNC(=O)/C=C/[C@H]2O[C@@H](n3cc(C)c(=O)[nH]c3=O)C[C@@H]2O)o1,–,inactive: -13.1%
